These are yes or no findings as the source states them, for the method shown. Binding seen in cells or lysates may run through a third protein. Binding calls can cover weak binding; strength is not graded here.
Molecular target: ATG5 (experiment of Fig. S1C) (UniProt Q9H1Y0)
Experiment: co-IP; Fig. S1C; upon mitochondrial depolarization; cells, constructs and precipitating antibody not stated in the text shown

Sequences of proteins named here, by UniProt entry; tags and fusion partners are left off. A change or cut given only in a name is not applied to a line headed by its entry.
UniProt Q9H1Y0: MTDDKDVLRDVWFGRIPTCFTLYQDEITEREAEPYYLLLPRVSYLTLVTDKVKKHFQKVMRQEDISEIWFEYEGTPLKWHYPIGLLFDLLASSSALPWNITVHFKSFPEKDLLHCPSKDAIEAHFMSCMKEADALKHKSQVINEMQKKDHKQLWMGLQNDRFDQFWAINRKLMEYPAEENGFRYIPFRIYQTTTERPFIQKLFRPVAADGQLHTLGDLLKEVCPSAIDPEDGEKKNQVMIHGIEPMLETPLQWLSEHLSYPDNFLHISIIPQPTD
UniProt P28074: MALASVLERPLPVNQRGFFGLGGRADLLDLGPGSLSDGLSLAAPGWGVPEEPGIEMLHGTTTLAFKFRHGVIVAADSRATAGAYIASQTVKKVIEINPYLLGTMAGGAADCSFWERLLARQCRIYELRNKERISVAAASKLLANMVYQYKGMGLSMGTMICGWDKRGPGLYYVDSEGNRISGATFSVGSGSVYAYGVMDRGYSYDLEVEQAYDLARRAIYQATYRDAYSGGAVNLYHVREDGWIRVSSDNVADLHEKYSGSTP

binding: binds
Substance: PSMB5 (experiment of Fig. S1C) (from UniProt P28074)

From article PMC9649694
